# Laboratory results reported in PubChem BioAssay AID2685 (National Center for Advancing Translational Sciences (NCATS), 2010).
# This is one part of the list. These are further read-outs of the screen, such as a control signal, another cell line or another target. No call is given for them. The list favours compounds with an active or inconclusive main result. Words in brackets tell the shape of the fitted curve; partial curves, single points and poor fits give uncertain potencies.
# Assay: qHTS Assay for Lipid Storage Modulators in Drosophila S3 Cells;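 on cell number change: cells counted by Cell Tracker Red CMTPX staining in the red channel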
# Settings: BODIPY lipid droplet fluorescence, 18-24 h; for cell number change: measured here: cell count max response, cells fed with added oleic acid
# How it was run: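 Drosophila S3 cells loaded with oleic acid (400 uM, as added) and compounds at several concentrations; lipid droplets imaged by 488-nm laser-scanning cytometry, 500–530 nm intensity and object ratio to cell channel. Percent activity normalized to 20 uM Triacsin C.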
# [1] = measured here: lipid fluorescence (Fed channel) AC50, cells fed with added oleic acid
# [2] = measured here: cell number channel AC50, cells fed with added oleic acid
Structure (SMILES),cell number change [%],AC50 [1],AC50 [2]
O=C(CSc1nnc(-c2ccccn2)o1)Nc1ccc(F)cc1,6.23,–,–
Nc1cc(C(F)(F)F)cc2c1SCC(=O)N2,10.3,"0.103 µM [rising, full curve, poor fit]",–
O=C(C1CCCO1)N1CCN(S(=O)(=O)c2ccc(F)cc2)CC1 (configuration not stated),-50,–,"0.731 µM [falling, full curve]"
CCOC(=O)N1CCN(S(=O)(=O)c2cc(Br)cc3c2N(C(=O)CC)CC3)CC1,2.81,"8.2 µM [falling, partial curve, poor fit]",–
COc1cccc(/C=C2\SC(=S)N(CCC(=O)NC3C=CS(=O)(=O)C3)C2=O)c1 (configuration not stated),9.37,–,–
Cn1cccc1C(=O)OCc1cc(-c2ccco2)on1,-5.71,"5.17 µM [rising, partial curve, poor fit]",–
COc1ccc(C2(CNC(C)=O)CCCC2)cc1OC,-4.24,"1.46 µM [falling, partial curve]",–
CC(C)COC(=O)n1c(SCC(N)=O)nc2ccccc21,13.8,"0.0731 µM [falling, partial curve, poor fit]",–
CCN(CC(=O)NCc1cccs1)S(=O)(=O)c1ccccc1Cl,-3.79,"0.58 µM [rising, full curve]",–
CCc1ccccc1N/N=C(/C)c1c(O)cc(C)oc1=O,60.4,–,"7.31 µM [rising, partial curve]"
CC1(C)CC(=O)C(CC2=C(O)CC(C)(C)CC2=O)=C(O)C1,-29.8,"1.3 µM [falling, partial curve]",–
CCOC(=O)Cc1nc(-c2cccc(C(F)(F)F)c2)no1,31.8,"3.26 µM [rising, full curve]",–
Cc1cc(S(=O)(=O)N2CCCCC2)ccc1OCC(=O)N1CCOCC1,-10.2,"29.1 µM [falling, single point]",–
COc1cc(/C=C/c2cccc[n+]2C)ccc1OCC(=O)Nc1cccc(Cl)c1,94.9,"29.1 µM [falling, single point]","10.3 µM [rising, partial curve]"
O=C(NNC(=S)Nc1cccc(C(F)(F)F)c1)c1cccc(Cl)c1,-40.4,"4.61 µM [falling, partial curve]","16.4 µM [falling, single point]"
CCCCc1ccc(NC(=O)CSc2nc(=O)n(CCN(CC)CC)c3c2CCCC3)cc1,–,–,"4.61 µM [rising, single point]"
CC1C(=O)N2CCCc3cc(S(=O)(=O)N4CCN(c5ccc(F)cc5)CC4)cc1c32 (configuration not stated),31.3,–,"29.1 µM [rising, single point]"
CC(OC(=O)CCc1nc2ccccc2c(=O)[nH]1)C(=O)Nc1ncc(Cl)cc1Cl (configuration not stated),–,"2.06 µM [falling, single point]",–
O=C(c1cccc(S(=O)(=O)N2CCCCC2)c1)N1CCCCC1,38.2,–,"7.31 µM [rising, partial curve]"
Cc1cc(C)cc(NS(=O)(=O)c2ccc(Oc3ncc(C(F)(F)F)cc3Cl)cc2)c1,-65.7,"2.59 µM [falling, partial curve]","32.6 µM [falling, partial curve]"

Structure (SMILES),cell number change [%],AC50 [1],AC50 [2]
Cc1ccccc1NC(=O)C1CCN(c2cc(-c3ccccc3)nc3ncnn23)CC1,-22,"20.6 µM [falling, partial curve, poor fit]",–
COc1ccccc1NS(=O)(=O)c1cc(NC(=O)CCC(=O)c2cccs2)ccc1Cl,18,"16.4 µM [rising, partial curve]",–
COc1ccc(Cc2nc3ccccc3[nH]c2=O)cc1,–,"0.206 µM [falling, single point]",–
CCCc1[nH]n(-c2ccc([N+](=O)[O-])cc2)c(=O)c1C=NCCc1c[nH]c2ccccc12,–,"0.58 µM [rising, single point]",–
CC(=O)N1CCN(CCN=CC2=C(O)CC(C)(C)CC2=O)CC1,-38.2,"29.1 µM [falling, single point]","4.61 µM [falling, full curve]"
Cc1cc(C)cc(C(=O)NC(CC(N)=O)c2ccc(NC3CCCCCCC3)c([N+](=O)[O-])c2)c1 (configuration not stated),-21.3,"0.00461 µM [rising, full curve, poor fit]",–
CCC(Cc1ccccc1)NC(=O)Cn1cccc1C(=O)c1ccccc1 (configuration not stated),41.6,"29.1 µM [rising, single point]","16.4 µM [rising, single point]"
COc1ccccc1/C=C1\CCCC2=C1Nc1nnnn1C2c1ccccc1OC (configuration not stated),17.3,–,–
O=C(COC(=O)COc1ccccc1)NCCc1ccccc1,-33.3,–,"10.3 µM [falling, partial curve]"
CCC(C)N=CC1=C(O)CC(c2ccccc2)CC1=O (configuration not stated),11.2,–,–
CCOC(=O)c1c(NC(=O)OC)sc(C(=O)N(C)C)c1C,-31.2,"14.6 µM [rising, partial curve, poor fit]","8.2 µM [falling, partial curve]"
CCCCN(CC)C(=S)Nc1ccc2nc3n(c(=O)c2c1)CCCCC3,4.4,"3.26 µM [rising, partial curve]","1.84 µM [rising, partial curve]"
COc1ccc(C(C)NC(=S)NCc2ccc(F)cc2)cc1OC (configuration not stated),1.47,–,"3.26 µM [rising, partial curve, poor fit]"
COc1ccc(S(=O)(=O)N2CCCN(S(=O)(=O)c3ccc(OC)cc3C)CC2)c(C)c1,-2.21,–,"0.092 µM [falling, full curve, poor fit]"
COc1ccc(NC(=O)C(=O)NCCC2=CCCCC2)c(OC)c1,-44,–,"6.51 µM [falling, partial curve, poor fit]"
CS(=O)(=O)c1cnc(-c2ccccc2)nc1-c1ccccc1Cl,–,"0.58 µM [rising, partial curve]",–
O=C(O)CCC(=O)Nc1nnc(C(F)(F)F)s1,–,"18.4 µM [falling, partial curve]",–
O=C(COC(=O)c1cccnc1Cl)NCCc1ccccc1,0.491,–,–
Cc1ccc(-n2c(CC#N)n[nH]c2=S)c(C)c1,-23.2,"29.1 µM [falling, single point]","0.164 µM [falling, full curve, poor fit]"
COC(=O)c1ccc(OC(=O)c2cccnc2)cc1,6.43,–,–

# An excerpt of these results, bar-delimited:
Structure (SMILES) | cell number change [%] | AC50 [1] | AC50 [2]
COc1ccc(Cc2nc3ccccc3[nH]c2=O)cc1 | – | 0.206 µM [falling, single point] | –
CCCc1[nH]n(-c2ccc([N+](=O)[O-])cc2)c(=O)c1C=NCCc1c[nH]c2ccccc12 | – | 0.58 µM [rising, single point] | –
CC(=O)N1CCN(CCN=CC2=C(O)CC(C)(C)CC2=O)CC1 | -38.2 | 29.1 µM [falling, single point] | 4.61 µM [falling, full curve]
Cc1cc(C)cc(C(=O)NC(CC(N)=O)c2ccc(NC3CCCCCCC3)c([N+](=O)[O-])c2)c1 (configuration not stated) | -21.3 | 0.00461 µM [rising, full curve, poor fit] | –
CCC(Cc1ccccc1)NC(=O)Cn1cccc1C(=O)c1ccccc1 (configuration not stated) | 41.6 | 29.1 µM [rising, single point] | 16.4 µM [rising, single point]
COc1ccccc1/C=C1\CCCC2=C1Nc1nnnn1C2c1ccccc1OC (configuration not stated) | 17.3 | – | –
O=C(COC(=O)COc1ccccc1)NCCc1ccccc1 | -33.3 | – | 10.3 µM [falling, partial curve]
CCC(C)N=CC1=C(O)CC(c2ccccc2)CC1=O (configuration not stated) | 11.2 | – | –
CCOC(=O)c1c(NC(=O)OC)sc(C(=O)N(C)C)c1C | -31.2 | 14.6 µM [rising, partial curve, poor fit] | 8.2 µM [falling, partial curve]
CCCCN(CC)C(=S)Nc1ccc2nc3n(c(=O)c2c1)CCCCC3 | 4.4 | 3.26 µM [rising, partial curve] | 1.84 µM [rising, partial curve]
COc1ccc(C(C)NC(=S)NCc2ccc(F)cc2)cc1OC (configuration not stated) | 1.47 | – | 3.26 µM [rising, partial curve, poor fit]
COc1ccc(S(=O)(=O)N2CCCN(S(=O)(=O)c3ccc(OC)cc3C)CC2)c(C)c1 | -2.21 | – | 0.092 µM [falling, full curve, poor fit]
COc1ccc(NC(=O)C(=O)NCCC2=CCCCC2)c(OC)c1 | -44 | – | 6.51 µM [falling, partial curve, poor fit]
CS(=O)(=O)c1cnc(-c2ccccc2)nc1-c1ccccc1Cl | – | 0.58 µM [rising, partial curve] | –
O=C(O)CCC(=O)Nc1nnc(C(F)(F)F)s1 | – | 18.4 µM [falling, partial curve] | –
O=C(COC(=O)c1cccnc1Cl)NCCc1ccccc1 | 0.491 | – | –
Cc1ccc(-n2c(CC#N)n[nH]c2=S)c(C)c1 | -23.2 | 29.1 µM [falling, single point] | 0.164 µM [falling, full curve, poor fit]

# (more compounds)

Structure (SMILES),cell number change [%],AC50 [1],AC50 [2]
CCOC(=O)C1=C(C)NC(=O)NC1c1ccccc1 (configuration not stated),38.8,"0.146 µM [falling, full curve, poor fit]","29.1 µM [rising, single point]"
O=C1c2ccccc2C(=O)c2c1cccc2N1CCOCC1,-26.4,"0.184 µM [falling, full curve, poor fit]",–
CCC(=O)Nc1cccc(Br)c1,-18.8,"25.9 µM [falling, single point]","2.06 µM [falling, single point]"
O=C(O)CCSc1ccc([N+](=O)[O-])cc1[N+](=O)[O-],–,"3.26 µM [falling, single point]","1.84 µM [falling, single point]"
FC(F)(F)c1cccc(NC(=S)NCc2ccc(Cl)cc2)c1,-43.6,"29.1 µM [falling, single point]","8.2 µM [falling, partial curve]"
CC1(C)CC(=O)C(/C=N/c2ncccc2C(=O)O)=C(O)C1,23.1,"1.46 µM [rising, full curve, poor fit]",–
Cc1ccc(-n2ncc3c(=O)n(CC(=O)NCC4CCCO4)cnc32)cc1 (configuration not stated),-14.3,"0.651 µM [rising, single point]",–
O=C(O)CSc1nnc(COc2cccc3cccnc23)n1-c1ccc(Cl)cc1,27.6,–,–
COc1ccc(C(C)C)cc1S(=O)(=O)NCC1CCCO1 (configuration not stated),49.5,–,"6.51 µM [rising, partial curve]"
Cc1cccc(N2CCN(S(=O)(=O)c3ccc4c(c3)CCN4C(=O)CCC(=O)O)CC2C)c1 (configuration not stated),-19,"6.51 µM [falling, single point]",–
O=[N+]([O-])c1cccc(P(=O)(O)c2cccc([N+](=O)[O-])c2)c1,-41.3,"0.461 µM [falling, full curve]",–
CCCCNS(=O)(=O)c1ccc(NC(=O)c2cccs2)cc1,0.287,–,–
NC(=O)c1ccc(N2CCN(c3ccc(O)cc3)CC2)c([N+](=O)[O-])c1,-7.69,"7.31 µM [falling, partial curve]",–
Cc1csc(SC(C)C(=O)NCC2CCCO2)n1 (configuration not stated),-5.23,"18.4 µM [rising, partial curve]",–
Fc1cccc(-c2c(-c3ccccc3)ncc3cc(F)ccc23)c1,10.6,"0.58 µM [falling, single point]",–
COCC(C)NC(=O)Cc1ccc(F)cc1 (configuration not stated),-61.9,–,"16.4 µM [falling, partial curve]"
Cc1cc(=O)n2nc(N3CCCC(C(=O)Nc4ccc(C)c(C)c4)C3)sc2n1 (configuration not stated),-1.44,"11.6 µM [falling, single point]",–
Cc1c(-c2cccc(Cl)c2)nc2ccccc2c1C(=O)OCC(=O)Nc1ccc2c(c1)OCO2,-5.05,"1.84 µM [rising, partial curve]",–
CSc1ccc(C2NC(=O)c3c(sc4c3CCN(C)C4)N2)cc1 (configuration not stated),-30.1,"0.461 µM [rising, full curve]","0.103 µM [falling, full curve, poor fit]"
O=C(NCCCN1CCCC1=O)c1cc(S(=O)(=O)N2CCOCC2)c(Cl)cc1Cl,-6.02,–,–
